Source: PubChem BioAssay AID1259405 (NCATS, 2018)
Shown is a random part of about 50,000 reagents. About 4,000 of all reagents (8%) count as active. 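Mouse siRNA library applied to hamster cells; one well for each siRNA.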 Entries without a mark were called inactive. Reagents against one gene are numbered here. Further read-outs or replicates are left out here. Reagent sequences are not shown.

Purpose: 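Silenced genes that increase secreted GFP made by CHO cells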 (primary screen)
Cell system: Chinese hamster CHO-K1 ovary cells with stable secreted eGFP expression
Reagents: single siRNA against mouse genes, 0.8 pmol siRNA per well (2 µl of 400 nM stock)
Time to read-out: 3 days
Detection: 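Percent of the per-plate non-targeting control median for intracellular GFP per well by laser scanning cytometry and for cell viability by ATP luminescence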
Scale: GFP, % of control: higher = more GFP per well, higher productivity
Active means: 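Called active when intracellular GFP, relative to negative control, is at or above 120%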

GFP, % of control, by gene and reagent
Trir: #1 61.3; #2 74.5; #3 56.8
Usp5: #1 74.5; #2 59.2; #3 70.6
Mettl6: #1 72.8; #2 77.8; #3 74.4
Golim4: #1 72.1; #2 61.9; #3 90
H2ac18: #1 156 (active); #2 101; #3 55.8

5 successive records from above:
GFP, % of control, by gene and reagent
Trir: #1 61.3; #2 74.5; #3 56.8
Usp5: #1 74.5; #2 59.2

Further records follow:
GFP, % of control, by gene and reagent
Emc2: #1 89.2; #2 80.3; #3 66.9
Wscd2: #1 53; #2 26.8; #3 68.7
Agbl1: #1 106; #2 62.4; #3 59.2
Mgat1: #1 60.5; #2 130 (active); #3 100
Tango2: #1 59.8; #2 51; #3 104
Xcl1: #1 99.2; #2 42.4; #3 86
Star: #1 78.9; #2 132 (active); #3 45.6
